{"sequences": {"note": "The chains behind the UniProt entries cited, without tags or fusion partners.", "UniProt P09471, whole entry, looked up": "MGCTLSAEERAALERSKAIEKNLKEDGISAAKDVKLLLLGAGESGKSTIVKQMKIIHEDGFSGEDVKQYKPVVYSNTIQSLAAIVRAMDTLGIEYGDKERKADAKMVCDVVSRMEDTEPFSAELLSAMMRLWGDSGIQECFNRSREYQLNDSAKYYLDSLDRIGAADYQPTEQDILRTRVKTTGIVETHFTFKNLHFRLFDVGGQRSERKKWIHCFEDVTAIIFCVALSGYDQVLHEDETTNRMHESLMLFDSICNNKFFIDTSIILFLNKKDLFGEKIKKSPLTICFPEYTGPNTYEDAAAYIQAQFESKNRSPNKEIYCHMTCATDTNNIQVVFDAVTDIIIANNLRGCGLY"}, "source": "PubChem BioAssay AID1439", "about": "(NMMLSC, 2008)", "note": "In all, about 220,000 compounds went through this assay and about 770 (0.35%) were called active. Inconclusive means that the source gave no clear call. Such entries were picked first, then a sample of the others. No stated cut-off is given here; in the data, active means binding response below about 49% or above about 150%; inconclusive means no clear call, values can overlap the other calls; inactive means in between."}
{"target": "Guanine nucleotide-binding protein G(o) subunit alpha (Homo sapiens) (UniProt P09471)", "test": "RGS7-Galphao binding modulators, primary screen, biochemical, multiplexed bead flow cytometry (AID 1439);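 further: fluorescent Galphao held in activated GDP-AlF4 state binding bead-coupled RGS7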", "conditions": "at 10 µM, actives lie on both sides"}
{"smiles": "CN1CCCC(OC(=O)/C(C#N)=C/c2ccccc2)C1", "note": "(configuration not stated)", "binding response (% of control)": "inconclusive: 111%"}
{"smiles": "Cc1ccc(C)c(CSc2ccc3nnc(-c4ccccn4)n3n2)c1", "binding response (% of control)": "inactive: 102%"}
{"smiles": "Cc1ccc(NC(=O)CCC(=O)N/N=C/c2coc3ccccc3c2=O)cc1", "binding response (% of control)": "inconclusive: 105%"}
{"smiles": "CC(=O)NCCc1nc2ccccc2n1Cc1cccc(C)c1", "binding response (% of control)": "inconclusive: 111%"}
{"smiles": "CNC(=S)N/N=C/c1ccc(-c2cc([N+](=O)[O-])ccc2Cl)o1", "binding response (% of control)": "inconclusive: 87.4%"}
{"smiles": "COc1ccc(-n2nc(C)cc2Nc2ccccc2C(=O)O)cc1", "binding response (% of control)": "inconclusive: 177%"}
{"smiles": "Cc1ccc(S(=O)(=O)NC(=O)Nc2cc(C(C)(C)C)on2)cc1", "binding response (% of control)": "inconclusive: 125%"}
{"smiles": "O=S(=O)(NCc1ccccn1)c1ccc(Cl)s1", "binding response (% of control)": "inactive: 101%"}
{"smiles": "CC(C)(C(=O)O)n1cncn1", "binding response (% of control)": "inconclusive: 92.2%"}
{"smiles": "COc1ccc2c(c1)CCc1cc(C(=O)O)sc1-2", "binding response (% of control)": "inconclusive: 82%"}
{"smiles": "O=C(COc1ncnc2ccccc12)N1CCN(S(=O)(=O)c2ccc(Cl)cc2)CC1", "binding response (% of control)": "inactive: 102%"}
{"smiles": "COc1ccc(N(C)S(=O)(=O)c2cccc(C(=O)N(C)Cc3ccc(C)o3)c2)cc1", "binding response (% of control)": "inactive: 89.9%"}
{"smiles": "CC(C)(C)C(=O)O/N=C(\\N)c1ccc(-c2csnn2)cc1", "binding response (% of control)": "inconclusive: 119%"}
{"smiles": "CCc1ccccc1NC(=O)c1ccc([N+](=O)[O-])s1", "binding response (% of control)": "inactive: 104%"}
{"smiles": "O=c1c2ccccc2ncn1Cc1ccccc1", "binding response (% of control)": "inconclusive: 123%"}
{"smiles": "CCCN(CCC)CCOc1cc(C)ccc1C(C)C", "binding response (% of control)": "inactive: 101%"}
{"smiles": "Cc1cccc2nc(-c3ccco3)c(Nc3ccc4c(c3)OCO4)n12", "binding response (% of control)": "inconclusive: 91.4%"}
{"smiles": "O=C(CSCCO)Nc1ccc([N+](=O)[O-])cc1", "binding response (% of control)": "inconclusive: 102%"}
{"smiles": "CCOC(=O)c1cc(C#N)c(C)nc1N(CC)CC", "binding response (% of control)": "inconclusive: 48.4%"}
{"smiles": "NC(=O)C1(C(N)=O)OC1c1ccc(Cl)cc1Cl", "note": "(configuration not stated)", "binding response (% of control)": "inconclusive: 82.1%"}
{"smiles": "C#Cc1ccc([C@@H]2C=C(C(=O)Nc3ccccc3)O[C@H](OCC)[C@H]2CCCO)cc1", "binding response (% of control)": "active: 11.5%"}
{"smiles": "CCCC(=O)N1CCN(c2ccc(NC(=O)c3cccs3)cc2)CC1", "binding response (% of control)": "inactive: 91.4%"}
{"smiles": "O=C(O)C(Cc1cn[nH]n1)=NO", "binding response (% of control)": "inconclusive: 175%"}
{"smiles": "Cc1c(Br)c([N+](=O)[O-])nn1CC(=O)NCc1ccccc1", "binding response (% of control)": "inconclusive: 107%"}
{"smiles": "O=C(NC(=S)Nc1ccccc1Cl)c1cnn2c(C(F)(F)F)cc(C(F)(F)F)nc12", "binding response (% of control)": "inconclusive: 373%"}
{"smiles": "O=C(NNc1ccc([N+](=O)[O-])cc1)c1ccccc1F", "binding response (% of control)": "inconclusive: 105%"}
{"smiles": "CC(C)n1cc(-c2nc(C(=O)NN)cs2)c(=O)n(Cc2ccccc2)c1=O", "binding response (% of control)": "inconclusive: 155%"}
